This test deals with P388 leukemia ip, CD2F1 mice, survival T/C. Briefly: NCI In Vivo Anticancer Drug Screen. Data for tumor model P388 Leukemia (intraperitoneal) in CD2F1 (CDF1) mice. The following applies: T/C endpoint: median survival time, higher T/C = longer survival.
The mark [1] stands for this setting: dose: 200.0 mg/kg/injection, schedule: Q01DX009 (ip), vehicle: saline with Tween-80.
The mark [2] stands for this setting: dose: 60.0 mg/kg/injection, schedule: Q01DX005 (ip), vehicle: saline with Tween-80.
Setting [3] is: dose: 120.0 mg/kg/injection, schedule: Q01DX005 (ip), vehicle: saline with Tween-80.
Setting [4] is: dose: 240.0 mg/kg/injection, schedule: Q01DX005 (ip), vehicle: saline with Tween-80.
[5] abbreviates: dose: 100.0 mg/kg/injection, schedule: Q01DX009 (ip), vehicle: saline with Tween-80.
[6] abbreviates: dose: 400.0 mg/kg/injection, schedule: Q04DX003 (ip), vehicle: saline with Tween-80.

Structures are written as SMILES. The list does not hold the whole screen: it is rich in T/C values a quarter to a half above the control, in often repeated tests (any T/C) and in doses without a T/C. Other doses and runs of a compound stand elsewhere. T/C is the treated group as % of the vehicle group. Some doses have a count of surviving animals in place of a T/C: the source files T/C as zero there, which appears to mark a toxic dose or a test without result, not a measured value. Some doses without a T/C left all or most animals alive at the check, yet need not have been tolerated: the source hardly ever lists a survival T/C far under the control, and the zero likely stands for such cases as well. Counts of survivors are from the toxicity check (mostly the fifth day) where no day follows; animals may have died later. Schedule codes are those of the source, read here as Q, the interval in days (D) or hours (H), X, the number of doses. Some entries were tested several times; the results are listed from low to high. For survival time, the PubChem record calls one and a half times the control and up active, and a quarter to a half above the control has no call in these data; cut-offs in other NCI protocols can differ. Some T/C values are followed by the survivors on the day toxicity was checked, most often the fifth; where none is given, no animal had died by that day.

Turning to `c1ccc2c(c1)[nH]c1nc3ccncc3nc12`, under setting [1], the survivor count is on record as 6 of 6.
Take `CC(=O)[C@]1(O)Cc2c(O)c3c(c(O)c2[C@@H](OC2CC(N)C(O)C(C)O2)C1)C(=O)c1c(OCc2ccccc2)cccc1C3=O` (stereo not given in full): the T/C was 133 % of control (dose: 25.0 mg/kg/injection, schedule: Q04DX003 (ip), vehicle: distilled water + Tween-80) and 125 % of control [5 of 6 alive on day 9] (dose: 50.0 mg/kg/injection, schedule: Q04DX003 (ip), vehicle: distilled water + Tween-80).
For the molecule `COc1ccc([N+](=O)[O-])cc1NC(=O)c1ccc2c(c1)C(=O)OC2=O`, the survivor count is 5 of 6 under setting [2]; 5 of 6 and 6 of 6 under setting [3].
As to `CCOC(=O)c1cc(/C=C/c2cccc(Cl)c2)on1`, the survivor count reads like this: under setting [2], 6 of 6; under setting [3], 6 of 6.
Take `CCCCOC(=O)N(CCF)N=O`: the T/C (dose: 25.0 mg/kg/injection, schedule: Q01DX001 (ip), vehicle: saline with Tween-80) was 127 and 135 % of control. In addition, the survivor count (dose: 50.0 mg/kg/injection, schedule: Q01DX001 (ip), vehicle: saline with Tween-80) is recorded as 1 of 6.
As to `CC(=O)Nc1nnc(-c2coc3ccccc3c2=O)s1`, the survivor count under setting [4] is recorded as 6 of 6.
Turning to `COc1cccc2c1C(=O)c1c(O)c3c(c(O)c1C2=O)C[C@@](O)(/C(C)=N/NC(=O)c1ccc(O)cc1)C[C@@H]3OC1CC(N)C(O)C(C)O1` (stereo not given in full), the T/C (dose: 1.0 mg/kg/injection, schedule: Q01DX009 (ip), vehicle: water) is 145 % of control. The survivor count is 6 of 6 (dose: 16.0 mg/kg/injection, schedule: Q01DX009 (ip), vehicle: water); 5 of 6 (dose: 40.0 mg/kg/injection, schedule: Q01DX001 (ip), vehicle: water); 5 of 6 (dose: 80.0 mg/kg/injection, schedule: Q01DX001 (ip), vehicle: water); 0 of 6 (dose: 160.0 mg/kg/injection, schedule: Q01DX001 (ip), vehicle: water); 0 of 6 (dose: 320.0 mg/kg/injection, schedule: Q01DX001 (ip), vehicle: water).
In the case of `Nc1cc2c(cc1Br)-c1c(C(=O)O)cccc1C2O` (stereo not given), the T/C runs as follows: under setting [3], 128 % of control; (dose: 200.0 mg/kg/injection, schedule: Q01DX005 (ip), vehicle: sodium bicarbonate) 134 % of control; under setting [4], 126 % of control; (dose: 400.0 mg/kg/injection, schedule: Q01DX005 (ip), vehicle: sodium bicarbonate) 134 % of control; (dose: 800.0 mg/kg/injection, schedule: Q01DX005 (ip), vehicle: sodium bicarbonate) 130 % of control.
For the molecule `N#Cc1ccc(NN=O)cc1`, the T/C is 129 % of control (dose: 25.0 mg/kg/injection, schedule: Q01DX009 (ip), vehicle: water); 126 and 133 % of control (dose: 50.0 mg/kg/injection, schedule: Q01DX009 (ip), vehicle: water). Moreover, under “dose: 200.0 mg/kg/injection, schedule: Q01DX009 (ip), vehicle: water”, the survivor count is listed as 0 of 6.
Regarding `c1ccc(C23CC2COP3(c2ccccc2)(c2ccccc2)c2ccccc2)cc1` (stereo not given), the survivor count runs as follows: (dose: 50.0 mg/kg/injection, schedule: Q01DX009 (ip), vehicle: olive oil, sesame oil, peanut oil) 0 of 6; (dose: 100.0 mg/kg/injection, schedule: Q01DX009 (ip), vehicle: olive oil, sesame oil, peanut oil) 1 of 6; (dose: 200.0 mg/kg/injection, schedule: Q01DX009 (ip), vehicle: olive oil, sesame oil, peanut oil) 0 of 6.
On to `CSc1nc(Cl)c2cn[nH]c2n1`, for which the survivor count (dose: 400.0 mg/kg/injection, schedule: Q04DX002 (ip), vehicle: water) is given as 2 of 6.
As to `C1=CSC(=C2SC=CS2)S1`, for the setting “dose: 25.0 mg/kg/injection, schedule: Q01DX009 (ip), vehicle: saline with Tween-80”, the T/C is 126 % of control.
On to `CCN(CC)CCNc1ccc(C)c2sc3ccccc3c(=O)c12` (tested in a mixture with another compound), for which the T/C (dose: 132.0 mg/kg/injection, schedule: Q04DX003 (ip), vehicle: saline) was 142 % of control [5 of 6 alive]. Besides, for the setting “dose: 200.0 mg/kg/injection, schedule: Q01DX009 (ip), vehicle: saline”, the survivor count was 3 of 6.
Regarding `O=C1C=CC(=O)c2nc3ccccc3nc21`, the survivor count by setting is: (dose: 12.5 mg/kg/injection, schedule: Q01DX009 (ip), vehicle: distilled water + Tween-80) 2 of 6; (dose: 25.0 mg/kg/injection, schedule: Q01DX009 (ip), vehicle: distilled water + Tween-80) 2 of 6; (dose: 50.0 mg/kg/injection, schedule: Q01DX009 (ip), vehicle: distilled water + Tween-80) 1 of 6; (dose: 100.0 mg/kg/injection, schedule: Q01DX009 (ip), vehicle: distilled water + Tween-80) 0 of 6.
As for `COc1cccc2c1C(=O)c1c(O)c3c(c(O)c1C2=O)C[C@@](O)(C(C)O)C[C@@H]3OC1CC(N2CCOCC2)C(O)C(C)O1` (stereo not given in full), the survivor count runs as follows: (dose: 1.56 mg/kg/injection, schedule: Q04DX003 (ip), vehicle: water) 0 of 6 on day 9; (dose: 3.13 mg/kg/injection, schedule: Q04DX003 (ip), vehicle: water) 0 of 6 on day 9; (dose: 6.25 mg/kg/injection, schedule: Q04DX003 (ip), vehicle: water) 0 of 6 on day 9; (dose: 12.5 mg/kg/injection, schedule: Q04DX003 (ip), vehicle: water) 0 of 6 on day 9; (dose: 25.0 mg/kg/injection, schedule: Q04DX003 (ip), vehicle: water) 0 of 6 on day 9; (dose: 50.0 mg/kg/injection, schedule: Q04DX003 (ip), vehicle: water) 0 of 6 on day 9. For the same molecule, where the note is “dose: 800.0 micrograms/kg/injection, schedule: Q04DX003 (ip), vehicle: water”, the survivor count was 5 of 6 on day 9.
With `CS(=O)(=O)Nc1ccc(Nc2c3ccccc3nc3cc([N+](=O)[O-])ccc23)cc1`, the T/C is 132 % of control (dose: 0.18 mg/kg/injection, schedule: Q01DX009 (ip), vehicle: saline with Tween-80) and 134 % of control (dose: 0.37 mg/kg/injection, schedule: Q01DX009 (ip), vehicle: saline with Tween-80).
On to `C#CC1(OC(=O)Nc2cccc(Cl)c2)CCCCC1`, for which the T/C under setting [5] was 130 % of control.
Consider `CCCCCCCCCCCC(=O)NN`, for which the survivor count under setting [5] was 6 of 6, the survivor count under setting [1] was 5 of 6 and the survivor count under setting [6] is 5 of 6.
Regarding `CCCCC/C([O-])=C1/C(=O)N(c2ccccc2)N=C1C.CCCCC/C([O-])=C1/C(=O)N(c2ccccc2)N=C1C.[Cu+2]`, the survivor count under setting [4] is 0 of 6.
`O=C1NC(O)c2cccc(Cl)c2O1` (stereo not given): the survivor count (dose: 400.0 mg/kg/injection, schedule: Q01DX005 (ip), vehicle: saline with Tween-80) is listed as 0 of 5.
On to `CN(C)/N=C1/CCCCC1C(O)(c1ccccc1)c1ccccc1` (stereo not given), for which the survivor count is 5 of 6 under setting [3] and 0 of 6 under setting [4].
For the molecule `Cc1nc2cc3c(cc2n2cccc12)oc1ccccc13`, for the setting “dose: 200.0 mg/kg/injection, schedule: Q01DX005 (ip), vehicle: Klucel (hydroxypropylcellulose) (HPC)”, the survivor count is reported as 1 of 5.
For the molecule `CC(=O)Nc1ccc(O)c(O)c1`, the T/C runs as follows: under setting [5], 126 % of control; under setting [1], 145 % of control; (dose: 400.0 mg/kg/injection, schedule: Q01DX009 (ip), vehicle: saline with Tween-80) 148 % of control.
With `C=CCOc1c2c(cc3ccc(=O)oc13)CC=CO2`, the survivor count (dose: 200.0 mg/kg/injection, schedule: Q01DX009 (ip), vehicle: Klucel (hydroxypropylcellulose) (HPC)) is recorded as 2 of 6.
On to `CCCCCCC([Se]C)C(O)(CCC)CCC` (stereo not given), for which the survivor count by setting is: (dose: 100.0 mg/kg/injection, schedule: Q04DX003 (ip), vehicle: saline with Tween-80) 5 of 6; (dose: 200.0 mg/kg/injection, schedule: Q04DX003 (ip), vehicle: saline with Tween-80) 0 of 6; under setting [6], 0 of 6.
